PubChem BioAssay AID686938, Drosophila RNAi Screening Center | 2013
Screen: 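Knock-downs reducing store-operated calcium influx in Drosophila cells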 (primary screen). Cell system: Drosophila S2R+ cells. Knock-down reagent: long dsRNA against Drosophila genes, about 0.25 µg dsRNA per well, roughly 10,000 cells. Duration: 5 days of knock-down before the calcium assay. Challenge: thapsigargin (SERCA pump blocker) to empty calcium stores; entry signal taken 4 min after adding it. Measurement: 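Duplicate raw fluo-4 intensities per well from a plate reader, at rest and four minutes after thapsigargin emptied calcium stores; entry-to-rest ratio filled for only some wells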. Scale: calcium entry signal: higher = stronger calcium signal after store depletion; entry to resting ratio: higher = more calcium entry relative to resting level; resting calcium signal: higher = higher resting calcium signal. Units: calcium entry signal in fluorescence units; resting calcium signal in fluorescence units. Active means: 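Called when the plate z-score of the entry-to-rest ratio, mean of duplicates, falls below −3; wells with low overall dye signal (Fmax z below −2) or more than five off-targets excluded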. Meaning of the calls: active = strongly reduced calcium entry; inactive = no strong reduction.
In all, the deposit lists about 23,000 reagents; shown is a random part of those with a known target gene and a result. In the full data, 75 (0.33%) got an active call. 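Raw plate signals without normalisation; calls rest on plate z-scores that were not deposited; ratio present for only 364 wells.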 The record does not give: the dose of the treatment.

CG7460 (GeneID 39973) [DRSC10850]: calcium entry signal, replicate 1 = 3.82e7; calcium entry signal, replicate 2 = 4.63e7; resting calcium signal, replicate 1 = 1.91e7; resting calcium signal, replicate 2 = 1.78e7; outcome = inactive
TfIIFbeta (GeneID 41290) [DRSC16884]: calcium entry signal, replicate 1 = 4.00e7; calcium entry signal, replicate 2 = 3.89e7; resting calcium signal, replicate 1 = 1.98e7; resting calcium signal, replicate 2 = 2.23e7; outcome = inactive
TfIIFbeta (GeneID 41290) [DRSC21447]: calcium entry signal, replicate 1 = 3.05e7; calcium entry signal, replicate 2 = 2.33e7; resting calcium signal, replicate 1 = 1.87e7; resting calcium signal, replicate 2 = 1.16e7; outcome = inactive
Pfdn1 (GeneID 33857) [DRSC02325]: calcium entry signal, replicate 1 = 3.84e7; calcium entry signal, replicate 2 = 3.19e7; resting calcium signal, replicate 1 = 1.89e7; resting calcium signal, replicate 2 = 1.57e7; outcome = inactive
clt (GeneID 117300) [DRSC04621]: calcium entry signal, replicate 1 = 4.11e7; calcium entry signal, replicate 2 = 3.95e7; resting calcium signal, replicate 1 = 2.19e7; resting calcium signal, replicate 2 = 1.77e7; outcome = inactive
Kcmf1 (GeneID 41082) [DRSC14459]: calcium entry signal, replicate 1 = 3.20e7; calcium entry signal, replicate 2 = 3.73e7; resting calcium signal, replicate 1 = 1.54e7; resting calcium signal, replicate 2 = 1.90e7; outcome = inactive

In a second layout: 2 of the entries above
{"Target gene":"TfIIFbeta (GeneID 41290)","dsRNA":"DRSC16884","calcium entry signal, replicate 1":4.00e7,"calcium entry signal, replicate 2":3.89e7,"resting calcium signal, replicate 1":1.98e7,"resting calcium signal, replicate 2":2.23e7,"outcome":"inactive"}
{"Target gene":"TfIIFbeta (GeneID 41290)","dsRNA":"DRSC21447","calcium entry signal, replicate 1":3.05e7,"calcium entry signal, replicate 2":2.33e7,"resting calcium signal, replicate 1":1.87e7,"resting calcium signal, replicate 2":1.16e7,"outcome":"inactive"}

Next reagents:
CIA30 (GeneID 43503) [DRSC16266]: calcium entry signal, replicate 1 = 3.02e7; calcium entry signal, replicate 2 = 3.48e7; resting calcium signal, replicate 1 = 1.25e7; resting calcium signal, replicate 2 = 1.52e7; outcome = inactive
CG42390 (GeneID 42600) [DRSC15866]: calcium entry signal, replicate 1 = 3.18e7; calcium entry signal, replicate 2 = 3.32e7; resting calcium signal, replicate 1 = 1.62e7; resting calcium signal, replicate 2 = 1.57e7; outcome = inactive
CG42390 (GeneID 42600) [DRSC23064]: calcium entry signal, replicate 1 = 3.01e7; calcium entry signal, replicate 2 = 4.45e7; resting calcium signal, replicate 1 = 1.50e7; resting calcium signal, replicate 2 = 1.91e7; outcome = inactive
CG42390 (GeneID 42600) [DRSC23065]: calcium entry signal, replicate 1 = 7.72e7; calcium entry signal, replicate 2 = 3.46e7; resting calcium signal, replicate 1 = 3.05e7; resting calcium signal, replicate 2 = 1.30e7; outcome = inactive
CG4645 (GeneID 32244) [DRSC19907]: calcium entry signal, replicate 1 = 3.60e7; calcium entry signal, replicate 2 = 3.79e7; resting calcium signal, replicate 1 = 1.79e7; resting calcium signal, replicate 2 = 1.77e7; outcome = inactive
Or2a (GeneID 31207) [DRSC18690]: calcium entry signal, replicate 1 = 3.81e7; calcium entry signal, replicate 2 = 5.82e7; entry to resting ratio = 2.2; resting calcium signal, replicate 1 = 1.75e7; resting calcium signal, replicate 2 = 2.45e7; outcome = inactive
